Reference: PubChem BioAssay AID1259424 (University of Nebraska Medical Center, 2018)
In all, the deposit lists about 14,000 reagents; this is a random part of them. 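Higher correlation or smaller distance means closer resemblance to KSR1 loss; control wells, including KSR1 knockdowns, recur on many plates.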 The numbers tell different reagents against one gene apart. The record does not give: the time to read-out.

- Purpose: 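Rank knockdowns across the genome by resemblance to the KSR1 depletion profile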 (primary screen)
- Cell system: human HCT116 colon cancer cells
- Reagents: siRNA pool against human genes, 50 nM
- Measured: 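Six signature mRNAs by branched-DNA multiplex assay, scaled to two housekeeping genes and non-targeting median, log2; matched to mean KSR1 knockdown profile by Pearson correlation and euclidean distance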
- Scale: mean correlation with KSR1 profile and KSR1 correlation: higher = expression change more like KSR1 knockdown; mean distance from KSR1 profile: higher = expression change less like KSR1 knockdown

target	reagent	mean correlation with KSR1 profile	mean distance from KSR1 profile	KSR1 correlation, replicate 1	KSR1 correlation, replicate 2	KSR1 correlation, replicate 3
VEGFB	1	0.132	3.3	0.238	0.121	-0.0121
EPB42	1	-0.275	2.13	-0.261	-0.361	-0.376
FBXW2	1	-0.774	1.79	-0.799	-0.877	-0.643
WARS1	1	0.215	2.08	0.137	0.283	0.108
RRM2	1	0.135	4.82	0.257	-0.0259	0.0386
PASK	1	0.172	1.98	0.58	0.255	-0.31
ASMTL-AS1	1	0.142	2.39	0.228	-0.0122	0.0105
FEM1C	1	0.00866	2	-0.14	0.219	0.0508
TMEM140	1	-0.304	2.41	-0.182	-0.369	-0.443
AZI2	1	0.0511	1.2	0.0765	0.0358	-0.269
AMT	1	-0.678	3.4	-0.0905	-0.0593	-0.497
HNRNPK	1	-0.0934	2.38	-0.221	-0.199	-0.226
NPM1	1	-0.151	2.29	-0.0653	-0.307	-0.176
TMEM8B	1	-0.0406	3.73	0.165	-0.117	-0.396
PLCB1	1	-0.305	1.55	-0.262	-0.415	-0.0868
ATP2A3	1	0.825	0.908	0.764	0.839	0.798
IL7R	1	0.0417	1.21	0.0832	0.0807	0.155
HES7	1	0.473	1.73	0.61	0.281	0.611
DMRTA2	1	-0.504	2.41	-0.35	-0.393	-0.608
ALG10	1	-0.355	1.39	-0.0685	-0.073	-0.744
TRPC1	1	-0.146	2.16	0.0436	-0.236	-0.278
SDK2	1	0.446	1.06	0.426	0.474	0.457
ARHGEF10	1	-0.161	2.15	-0.408	-0.185	-0.0445
HS3ST2	1	-0.165	2.01	0.0913	-0.607	0.0377
CENPN	1	-0.256	2.76	-0.66	-0.257	0.0605
GPR37	1	0.68	2.69	0.578	0.689	0.652
WT1-AS	1	0.575	3.19	0.686	0.0153	0.496
RORA	1	-0.114	1.54	-0.0487	0.0788	-0.289
FOXN2	1	0.0584	2.63	-0.216	0.0683	0.0372
UBOX5	1	-0.522	1.62	-0.837	-0.271	-0.481
PHYHIPL	1	0.116	2.07	0.12	0.144	-0.312
TRIM55	1	0.0541	3.09	-0.0651	0.0096	-0.0876
CR1L	1	-0.362	3.01	-0.447	-0.485	-0.335

Copied from the entries so far for reference:
target	reagent	mean correlation with KSR1 profile	mean distance from KSR1 profile	KSR1 correlation, replicate 1	KSR1 correlation, replicate 2	KSR1 correlation, replicate 3
GPR37	1	0.68	2.69	0.578	0.689	0.652
WT1-AS	1	0.575	3.19	0.686	0.0153	0.496
RORA	1	-0.114	1.54	-0.0487	0.0788	-0.289
FOXN2	1	0.0584	2.63	-0.216	0.0683	0.0372
UBOX5	1	-0.522	1.62	-0.837	-0.271	-0.481
PHYHIPL	1	0.116	2.07	0.12	0.144	-0.312
TRIM55	1	0.0541	3.09	-0.0651	0.0096	-0.0876

Continued:
target	reagent	mean correlation with KSR1 profile	mean distance from KSR1 profile	KSR1 correlation, replicate 1	KSR1 correlation, replicate 2	KSR1 correlation, replicate 3
BTK	1	0.0545	2.58	0.121	-0.0921	-0.119
RTTN	1	0.00775	1.74	-0.0321	0.0358	-0.0131
TRPM1	1	0.218	1.89	-0.025	0.487	0.0723
TRIM35	1	-0.061	1.21	-0.331	-0.0362	0.188
TNF	1	0.188	2.67	0.336	0.324	-0.0489
LINC00470	1	-0.546	1.59	0.125	-0.647	-0.694
ADAMTSL4	1	-0.426	7.24	0.0273	-0.363	-0.0447
ADAMTSL4	2	0.636	1.25	0.656	0.603	0.441
E2F3	1	-0.366	1.8	-0.348	-0.322	-0.455
TEKT2	1	0.835	0.845	0.596	0.957	0.539
CCL11	1	0.116	2.18	0.293	-0.0121	-0.0464
DYNLT2	1	-0.181	3.26	-0.201	-0.255	-0.0616
RASSF2	1	-0.182	3.17	-0.2	-0.203	-0.0221
DNAJC13	1	-0.453	3.01	-0.563	-0.233	-0.308
ENPEP	1	0.0367	3.23	-0.0233	-0.103	0.114
TNMD	1	-0.452	2.37	-0.325	-0.482	-0.496
E2F4	1	-0.386	1.78	-0.421	-0.232	-0.515
